# Reference: patent US20200030262A1, “THERAPEUTIC SIGMA 1 RECEPTOR AGONISTS FOR TREATING LONG QT SYNDROME TYPE 1, TYPE 2, TYPE 6, TYPE 8 AND RELATED CHANNELOPATHIES” (priority 2017, published 2020)
# No constants are given. Whether binding was seen depends on the method and setting. Binding seen in cells or lysates may run through a third protein. Some binding calls cover weakened binding; strength is not graded here.
# How the values were obtained:
# Sigma-1R [1] = molecular target: T1, Sigma-1R (Homo sapiens, UniProt Q99720); test: co-immunoprecipitation: cardiomyocyte lysates on CDK5 antibody-conjugated beads, then western blot
# Sigma-1R [2] = molecular target: T1, Sigma-1R; test: endogenous co-immunoprecipitation (CDK5 IP, western blot for sigma 1 receptor)
substance,measurement,setting,value
cyclin-dependent kinase 5 (cdk5) (from UniProt Q00535 1-292) (enzyme),binding,Sigma-1R [1],binds
same,binding,Sigma-1R [2],binds
